Measurements reported in US12681015B2, “Methods for predicting patient response to DMARDs” (Queen Mary University of London, priority 2019, dated 2026).

Test: Plasma lipid mediator profiling in RA patients 6 months after DMARD treatment initiation
Format: in vivo, human
Conditions: 6 months after treatment initiation

SMILES	Peripheral blood lipid mediator profile after 6 months of DMARD treatment, DMARD Non-Responders, Mean ± SEM	Peripheral blood lipid mediator profile after 6 months of DMARD treatment, DMARD Responders, Mean ± SEM
CC/C=C\C[C@H](O)\C=C/C=C/C=C/[C@H](O)C/C=C\CCCCCC(=O)O [PD1n-3 DPA]	0.34 ± 0.11	0.37 ± 0.08
CC/C=C\C/C=C\C=C\C(O)/C=C/C=C/C(O)C(O)CCCCCC(=O)O (centres unmarked) [RvT3]	0.00 ± 0.00	0.00 ± 0.00
CC/C=C\C/C=C\C[C@H](O)[C@@H](/C=C/C=C/C=C\C/C=C\CCC(=O)O)SC[C@H](N)C(=O)NCC(=O)O [MCTR2]	0.28 ± 0.19	0.97 ± 0.23
CCCCC/C=C\C\C=C/C=C/C=C/[C@@H](SC[C@H](N)C(=O)O)[C@@H](O)CCCC(=O)O [LTE4]	87.57 ± 44.40	41.48 ± 12.00
CC/C=C\C[C@H](O)\C=C/C=C/C=C/[C@H](O)C/C=C\C/C=C\CCC(=O)O [PD1]	0.78 ± 0.27	1.14 ± 0.19
CCCCC[C@@H](O)/C=C/C=C\C=C\C=C\[C@@H](O)[C@@H](O)CCCC(=O)O [15R-LXA4]	1.78 ± 0.54	0.76 ± 0.15
CCCCC[C@H](O)/C=C/C=C\C=C\C=C\[C@@H](O)[C@@H](O)CCCC(=O)O [LXA4]	0.08 ± 0.03	0.11 ± 0.03
CC[C@@H](O)/C=C/C=C\C[C@@H](O)/C=C/C=C/C=C\[C@@H](O)CCCC(=O)O [RvE1]	0.00 ± 0.00	0.09 ± 0.07
CC/C=C\C/C=C\C[C@H](O)/C=C/C=C\C/C=C\C=C\[C@@H](O)CCC(=O)O [4S,14S-diHDHA]	1.51 ± 0.37	3.89 ± 3.28
CCCCC/C=C\C[C@H](O)/C=C/C=C/C=C/[C@@H](O)CCCC(=O)O [12-epi-6-trans-LTB4]	4.63 ± 2.24	1.95 ± 0.33
CC/C=C\C/C=C\C[C@H](O)\C=C/C=C/C=C/[C@H](O)C/C=C\CCC(=O)O [MaR1]	5.83 ± 1.30	6.82 ± 1.39
CC/C=C\C/C=C\C[C@H](O)[C@@H](/C=C/C=C/C=C\C/C=C\CCC(=O)O)SC[C@H](NC(=O)CC[C@H](N)C(=O)O)C(=O)NCC(=O)O [MCTR1]	0.00 ± 0.00	0.00 ± 0.00
CC/C=C\CC(O)/C=C/C=CCC=C/C=C\C(O)CCCCCC(=O)O (centres unmarked) [RvD5n-3 DPA]	1.38 ± 0.28	1.26 ± 0.21
CCCCC/C=C\C\C=C/C=C/C=C/[C@@H](SC[C@H](N)C(=O)NCC(=O)O)[C@@H](O)CCCC(=O)O [LTD4]	5.65 ± 1.31	6.86 ± 1.69
CC/C=C\C/C=C\CC(=O)\C=C/C=C/C=C/[C@H](O)C/C=C\CCC(=O)O [14-oxo-MaR1]	2.35 ± 0.86	0.32 ± 0.32
CC/C=C\C/C=C\C[C@H](O)[C@@H](/C=C/C=C/C=C\C/C=C\CCC(=O)O)SC[C@H](N)C(=O)O [MCTR3]	4.71 ± 1.61	3.32 ± 0.98

The amount applied is not stated for every result. Where no unit stands, none is given here, and values compare only within one read-out.
